Tags and fusion partners may be left off the protein sequences shown.
Test system: T1, NLVG(N56K+C71V) (NLS-LexA(1-87)-VIVID-Gal4AD) (artificial)
T1 sequence: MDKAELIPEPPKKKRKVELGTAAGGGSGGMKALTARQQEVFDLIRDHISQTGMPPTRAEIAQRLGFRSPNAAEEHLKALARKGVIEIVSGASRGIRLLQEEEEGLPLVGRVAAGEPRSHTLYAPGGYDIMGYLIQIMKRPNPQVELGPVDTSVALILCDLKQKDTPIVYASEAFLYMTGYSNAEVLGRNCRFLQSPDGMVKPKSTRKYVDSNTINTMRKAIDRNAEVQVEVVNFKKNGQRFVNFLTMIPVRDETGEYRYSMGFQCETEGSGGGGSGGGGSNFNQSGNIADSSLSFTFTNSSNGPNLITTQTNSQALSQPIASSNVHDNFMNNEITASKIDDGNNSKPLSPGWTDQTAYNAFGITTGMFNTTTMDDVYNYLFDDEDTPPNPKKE
Experiment: activity in cells
Conditions: yeast AH109, EYFP increased by blue light; highest induction ratio of the four; protein in cells

Sequence: TCGAGGGCGTTCGTCCTCACTGTATGATCATACAGTCTGTATATATATACAGTACTGTATGATCATACAGGTTCCTGAAACGCAGATGTGCCTACTGTATATATATACAGTAACAATAAAGATTCA (double strand) [4xLexA UAS (P95)]
- activity on this sequence: active
